{
  "sequences": {"note": "Chains of the proteins cited; added tags and fusions are not shown. Lines headed by an entry give the natural chain unless they say otherwise; changes in a name come on top. Residues count along the entry.", "UniProt P04386": "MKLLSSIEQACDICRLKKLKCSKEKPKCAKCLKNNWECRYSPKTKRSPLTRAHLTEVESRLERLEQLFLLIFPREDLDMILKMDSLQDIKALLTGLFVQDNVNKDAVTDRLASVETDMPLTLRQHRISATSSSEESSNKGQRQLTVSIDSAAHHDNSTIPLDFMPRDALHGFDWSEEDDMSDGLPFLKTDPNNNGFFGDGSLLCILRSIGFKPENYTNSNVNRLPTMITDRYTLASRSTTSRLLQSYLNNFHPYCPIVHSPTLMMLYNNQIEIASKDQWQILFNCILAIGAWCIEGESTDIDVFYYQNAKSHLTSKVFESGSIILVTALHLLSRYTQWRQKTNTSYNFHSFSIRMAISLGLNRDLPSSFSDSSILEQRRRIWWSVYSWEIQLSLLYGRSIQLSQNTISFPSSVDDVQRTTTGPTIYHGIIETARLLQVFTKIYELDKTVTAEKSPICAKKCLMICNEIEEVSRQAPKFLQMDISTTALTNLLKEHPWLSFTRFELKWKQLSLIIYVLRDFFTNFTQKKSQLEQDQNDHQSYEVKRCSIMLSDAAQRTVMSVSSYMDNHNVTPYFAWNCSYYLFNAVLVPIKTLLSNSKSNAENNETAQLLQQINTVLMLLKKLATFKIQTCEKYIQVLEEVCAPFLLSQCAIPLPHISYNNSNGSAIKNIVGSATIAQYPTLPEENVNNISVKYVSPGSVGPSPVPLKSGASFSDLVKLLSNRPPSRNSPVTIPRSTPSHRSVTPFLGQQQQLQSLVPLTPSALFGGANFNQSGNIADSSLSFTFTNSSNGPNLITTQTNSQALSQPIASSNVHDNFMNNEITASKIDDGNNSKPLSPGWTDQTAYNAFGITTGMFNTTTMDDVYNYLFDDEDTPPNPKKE", "UniProt A3DH67, residues 673-741": "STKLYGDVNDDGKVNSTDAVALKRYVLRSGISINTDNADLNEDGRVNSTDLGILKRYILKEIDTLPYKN"},
  "source": "patent US20100197767A1",
  "biological_target": "Binding Domain fused to Coh2 (wild-type GAL4-BD/Coh2 fusion protein) (UniProt P04386)",
  "assay": "mammalian two-hybrid (GAL4-site luciferase reporter) in 293T cells; worded comparison",
  "note": "These are yes or no findings as the source states them, for the method shown. Some results given as binding are weak or reduced against the parent protein; the word gives no strength.",
  "data": [
    {"substance": "Activation Domain fused to DocS (wild-type VP16-AD/DocS fusion protein) (from UniProt A3DH67 673-741)", "values": [
      {"measurement": "binding", "result": "binds"}
    ]}
  ]
}
